Source: paper PMC8834516

T1: Transglutaminase-2 (mouse (endogenous in mouse brain)) (UniProt P21981)
T1 sequence: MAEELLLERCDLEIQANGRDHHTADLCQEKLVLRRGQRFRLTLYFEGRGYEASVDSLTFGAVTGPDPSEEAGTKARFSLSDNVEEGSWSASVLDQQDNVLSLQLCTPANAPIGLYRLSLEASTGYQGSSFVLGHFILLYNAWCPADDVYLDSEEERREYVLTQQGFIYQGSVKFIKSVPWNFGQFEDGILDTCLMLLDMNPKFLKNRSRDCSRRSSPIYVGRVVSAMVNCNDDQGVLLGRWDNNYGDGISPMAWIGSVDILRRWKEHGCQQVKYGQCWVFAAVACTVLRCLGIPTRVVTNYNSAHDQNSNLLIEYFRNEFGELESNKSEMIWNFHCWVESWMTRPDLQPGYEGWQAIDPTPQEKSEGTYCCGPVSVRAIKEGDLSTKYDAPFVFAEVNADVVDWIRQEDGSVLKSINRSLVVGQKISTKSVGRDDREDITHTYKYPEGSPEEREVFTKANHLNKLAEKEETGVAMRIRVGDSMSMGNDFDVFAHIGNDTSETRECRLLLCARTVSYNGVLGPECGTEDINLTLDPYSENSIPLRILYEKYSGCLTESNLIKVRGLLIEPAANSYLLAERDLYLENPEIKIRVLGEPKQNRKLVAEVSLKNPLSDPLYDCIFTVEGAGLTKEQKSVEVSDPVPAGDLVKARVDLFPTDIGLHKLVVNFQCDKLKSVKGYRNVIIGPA


Molecular target: T1, Transglutaminase-2 (mouse (endogenous in mouse brain))
Assay: affinity purification with mass spectrometry; TG2 immunoprecipitated from total brain homogenates of 18-month-old WT and APP23 mice with anti-TG2 antibody IA12 crosslinked to protein A/G magnetic beads, 22 h at 4 °C; IP lysis buffer 25 mM Tris pH 7.4, 150 mM NaCl, 1 mM EDTA, 1% NP40, 5% glycerol; on-bead trypsin digest, SWATH MS; TG2−/− cohorts as background, z-test p ≤ 0.05, n = 5 per cohort

binding | Binder
binds | Protein S100-A13 (protein, UniProt P97352 1-98) MAAETLTELEAAIETVVSTFFTFAGREGRKGSLNINEFKELATQQLPHLLKDVGSLDEKMKTLDVNQDSELRFSEYWRLIGELAKEVRKEKALGIRKK
binds | Ras-related protein Rab-3A (protein, UniProt P63011 1-220) MASATDSRYGQKESSDQNFDYMFKILIIGNSSVGKTSFLFRYADDSFTPAFVSTVGIDFKVKTIYRNDKRIKLQIWDTAGQERYRTITTAYYRGAMGFILMYDITNEESFNAVQDWSTQIKTYSWDNAQVLLVGNKCDMEDERVVSSERGRQLADHLGFEFFEASAKDNINVKQTFERLVDVICEKMSESLDTADPAVTGAKQGPQLTDQQAPPHQDCAC
binds | Nck-associated protein 1 (protein, UniProt P28660 1-1128) MSRSVLQPSQQKLAEKLTILNDRGVGMLTRLYNIKKACGDPKAKPSYLIDKNLESAVKFIVRKFPAVETRNNNQQLAQLQKEKSEILKNLALYYFTFVDVMEFKDHVCDLLNTIDVCQVFFDITVNFDLTKNYLDLTVTYTTLMILLSRIEERKAIIGLYNYAHEMTHGASDREYPRLGQMIVDYENPLKKMMEEFVPHSKSLSDALISLQMVYPRRNLSADQWRNAQLLSLISAPSTMLNPAQSDTMPCEYLSLDAMEKWIIFGFILCHGMLNTEATALNLWKLALQSSSCLSLFRDEVFHIHKAAEDLFVNIRGYNKRINDIRECKEAAVSHAGSMHRERRKFLRSALKELATVLSDQPGLLGPKALFVFMALSFARDEIIWLLRHADNMPKKSADDFIDKHIAELIFYMEELRAHVRKYGPVMQRYYVQYLSGFDAVVLNELVQNLSVCPEDESIIMSSFVNTMTSLSVKQVEDGEVFDFRGMRLDWFRLQAYTSVSKASLSLADHRELGKMMNTIIFHTKMVDSLVEMLVETSDLSIFCFYSRAFEKMFQQCLELPSQSRYSIAFPLLCTHFMSCTHELCPEERHHIGDRSLSLCNMFLDEMAKQARNLITDICTEQCTLSDQLLPKHCAKTISQAVNKKSKKQTGKKGEPEREKPGVESMRKNRLVVTNLDKLHTALSELCFSINYVPNMAVWEHTFTPREYLTSHLEIRFTKSIVGMTMYNQATQEIAKPSELLTSVRAYMTVLQSIENYVQIDITRVFNNVLLQQTQHLDSHGEPTITSLYTNWYLETLLRQVSNGHIAYFPAMKAFVNLPTENELTFNAEEYSDISEMRSLSELLGPYGMKFLSESLMWHISSQVAELKKLVVENVDVLTQMRTSFDKPDQMAALFKRLSSVDSVLKRMTIIGVILSFRSLAQEALRDVLSYHIPFLVSSIEDFKDHIPRETDMKVAMNVYELSSAAGLPCEIDPALVVALSSQKSENISPEEEYKIACLLMVFVAVSLPTLASNVMSQYSPAIEGHCNNIHCLAKAINQIAAALFTIHKGSIEDRLKEFLALASSSLLKIGQETDKTTTRNRESVYLLLDMIVQESPFLTMDLLESCFPYVLLRNAYHAVYKQSVTSSA
binds | Hemopexin (protein, UniProt Q91X72 24-460) SPLPTANGRVAEVENGTKPDSDVPEHCLDTWSFDAATMDHNGTMLFFKGEFVWRGHSGTRELISARWKNPITSVDAAFRGPDSVFLIKEDKVWVYPPEKKENGYPKLFQEEFPGIPYPPDAAVECHRGECQSEGVLFFQGNRKWFWDFATRTQKERSWSTVGNCTAALRWLERYYCFQGNKFLRFNPVTGEVPPRYPLDARDYFVSCPGRGHGRPRNGTAHGNSTHPMHSRCSPDPGLTALLSDHRGATYAFTGSHYWRLDSSRDGWHSWPIAHHWPQGPSTVDAAFSWDDKVYLIQGTQVYVFLTKGGNNLVSGYPKRLEKELGSPPGISLETIDAAFSCPGSSRLYVSSGRRLWWLDLKSGAQATWTEVSWPHEKVDGALCLDKSLGPNTCSSNGSSLYFIHGPNLYCYSSIDKLNAAKSLPQPQKVNSILGCSQ
binds | Dynamin-1 (protein, UniProt P39053 1-867) MGNRGMEDLIPLVNRLQDAFSAIGQNADLDLPQIAVVGGQSAGKSSVLENFVGRDFLPRGSGIVTRRPLVLQLVNSTTEYAEFLHCKGKKFTDFEEVRLEIEAETDRVTGTNKGISPVPINLRVYSPHVLNLTLVDLPGMTKVPVGDQPPDIEFQIRDMLMQFVTKENCLILAVSPANSDLANSDALKIAKEVDPQGQRTIGVITKLDLMDEGTDARDVLENKLLPLRRGYIGVVNRSQKDIDGKKDITAALAAERKFFLSHPSYRHLADRMGTPYLQKVLNQQLTNHIRDTLPGLRNKLQSQLLSIEKEVDEYKNFRPDDPARKTKALLQMVQQFAVDFEKRIEGSGDQIDTYELSGGARINRIFHERFPFELVKMEFDEKELRREISYAIKNIHGIRTGLFTPDMAFETIVKKQVKKIREPCLKCVDMVISELISTVRQCTKKLQQYPRLREEMERIVTTHIREREGRTKEQVMLLIDIELAYMNTNHEDFIGFANAQQRSNQMNKKKTSGNQDEILVIRKGWLTINNIGIMKGGSKEYWFVLTAENLSWYKDDEEKEKKYMLSVDNLKLRDVEKGFMSSKHIFALFNTEQRNVYKDYRQLELACETQEEVDSWKASFLRAGVYPERVGDKEKASETEENGSDSFMHSMDPQLERQVETIRNLVDSYMAIVNKTVRDLMPKTIMHLMINNTKEFIFSELLANLYSCGDQNTLMEESAEQAQRRDEMLRMYHALKEALSIIGDINTTTVSTPMPPPVDDSWLQVQSVPAGRRSPTSSPTPQRRAPAVPPARPGSRGPAPGPPPAGSALGGAPPVPSRPGASPDPFGPPPQVPSRPNRAPPGVPSLGAWRLNSPQGKHENRAGKARL
binds | Tenascin-R (protein, UniProt Q8BYI9 32-1358) RLEVTTERAQRQTVEEEGGASSYNTSSKEQPMVFNHVYNINVPLESLCSSGLEASAEQDMSAEDDTLAEYIGQTSDHESQVTFTHKINLPKKACPCASSSQVLQELLSRIEMLEREVSLLRDQCNTNCCQESAATGQLDYVPHCSGHGNFSFESCGCICNEGWFGKNCSEPYCPLGCSSRGVCVDGQCICDSEYSGDDCSELRCPTDCSSRGLCVDGECVCEEPYTGEDCRELRCPGDCSGKGQCANGTCLCQEGYAGEDCSQRRCLNACSGRGHCQEGLCICEEGYQGPDCSAVAPPEDLRVAGISDRSIELEWDGPMAVTEYVISYQPTALGGLQLQQRVPGDWSGVTIMELEPGLTYNISVYAVISNILSLPITAKVATHLSTPQGLQFKTITETTVEVQWEPFSFSFDGWEISFIPKNNEGGVIAQLPSDVTSFNQTGLKPGEEYIVNVVALKEQARSPPTSASVSTVIDGPTQILVRDVSDTVAFVEWTPPRAKVDFILLKYGLVGGEGGKTTFRLQPPLSQYSVQALRPGSRYEVSISAVRGTNESEASSTQFTTEIDAPKNLRVGSRTATSLDLEWDNSEAEAQEYKVVYSTLAGEQYHEVLVPKGIGPTTKTTLTDLVPGTEYGVGISAVMNSKQSIPATMNARTELDSPRDLMVTASSETSISLIWTKASGPIDHYRITFTPSSGISSEVTVPRDRTSYTLTDLEPGAEYIISITAERGRQQSLESTVDAFTGFRPISHLHFSHVTSSSVNITWSDPSPPADRLILNYSPRDKEEDMLEVLLDATKRHAVLMGLQPATEYIVNLVAVHGTVTSEPIVGSITTGIDPPKNITISNVTKDSLTVSWSSPVAPFDYYRVSYRPTQVGRLDSSVVPNTVTEFAITRLYPATEYEISLNSVRGREESERICTLVHTAMDSPMDLIATNITPTEALLQWKAPMGEVENYVIVLTHFAIAGETILVDGVSEEFQLVDLLPSTHYTVTMYATSGPLMSGTIATNFSTLLDPPDNLTASEVTRQSALISWQPPRAAIENYVLTYKSTDGSRKELIVDAEDTWIRLEGLSENTDYTVLLQAAQEATRSSLTSTVFTTGGRVFSHPQDCAQHLMNGDTLSGVYTIFLNGELSHKLQVYCDMTTDGGGWIVFQRRQNGQTDFFRKWADYRVGFGNLEDEFWLGLDNIHRITAQGRYELRVDMRDGQEAVFAYYDKFAVEDSRSLYKIRIGSYNGTAGDSLSYHQGRPFSTEDRDNDVAVTNCAMSYKGAWWYKNCHRTNLNGKYGESRHSQGINWYHWKGHEFSIPFVEMKMRPYIHRLTAGRKRRALKF

No constants are given. Whether binding was seen depends on the method and setting. Binding seen in cells or lysates may run through a third protein. A yes stands for co-enrichment or nearness to the bait. Other partners may have been found.
